# PubChem BioAssay AID1224826 – NIAID | 2016
# Aim: 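Knock-downs that raise or lower Tnf reporter signal after endotoxin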 (primary screen)
# System: RAW264.7 G9 macrophages from mouse bearing reporters for p65 (GFP) and the Tnf promoter (mCherry)
# Knock-down reagent: siRNA pool against mouse genes, 100 nM
# Timing: 16 h of LPS stimulation, after 2 days of siRNA transfection
# Challenge: bacterial lipopolysaccharide (Salmonella minnesota R595), 10 ng/ml
# Measured: 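Imaged Tnf reporter mCherry in nuclei, minus background, normalised per plate to the median and expressed as robust z-scores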
# Reading the numbers: Tnf reporter robust z-score: higher = stronger Tnf promoter reporter signal after LPS
# Call rule: 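a well counts as active at a score of -1.3 or below (Tlr4 knock-down control median) or above 3 (raised signal); controls and wells holding fewer than 50 cells are excluded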
# Calls: active = Tnf reporter clearly lowered or raised; inactive = no clear change in Tnf reporter
# Here is an unselected part of about 17,000 reagents. About 1,110 of all reagents (6.6%) count as active. 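Active means lowered or raised reporter signal; replicate intensities are raw and not normalised per plate.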 Some reagents were tested in more than one well and are listed for each. Not all columns of the deposit are shown.
Tnf reporter robust z-score,fewer than 50 cells in well,Call,gene
-0.46,enough cells in well,inactive,Kif17 (kinesin family member 17)
-0.95,enough cells in well,inactive,Zfp874a (zinc finger protein 874a)
-0.51,enough cells in well,inactive,Klf10 (Kruppel-like transcription factor 10)
-0.94,enough cells in well,inactive,Nup160 (nucleoporin 160)
2.43,enough cells in well,inactive,Svs3a (seminal vesicle secretory protein 3A)
,fewer than 50 cells per well; well left out of calls,inactive,Slc35f1
-0.59,enough cells in well,inactive,Cdc5l (cell division cycle 5-like)
1.93,enough cells in well,inactive,"Zbed4 (zinc finger, BED type containing 4)"
0.43,enough cells in well,inactive,Smco4 (single-pass membrane protein with coiled-coil domains 4)
,fewer than 50 cells per well; well left out of calls,inactive,"Tas2r106 (taste receptor, type 2, member 106)"
-0.45,enough cells in well,inactive,"Ear6 (eosinophil-associated, ribonuclease A family, member 6)"
-0.27,enough cells in well,inactive,BC061195 (cDNA sequence BC061195)
-0.17,enough cells in well,inactive,Abcg5 (ATP binding cassette subfamily G member 5)
,fewer than 50 cells per well; well left out of calls,inactive,"Tut1 (terminal uridylyl transferase 1, U6 snRNA-specific)"
,fewer than 50 cells per well; well left out of calls,inactive,Eef1akmt2 (EEF1A lysine methyltransferase 2)
1.16,enough cells in well,inactive,9330132A10Rik (RIKEN cDNA 9330132A10 gene)
-1.63,enough cells in well,active,Map3k12 (mitogen-activated protein kinase kinase kinase 12)

Entries listed above with an active call, once more:
Tnf reporter robust z-score,fewer than 50 cells in well,Call,gene
-1.63,enough cells in well,active,Map3k12 (mitogen-activated protein kinase kinase kinase 12)

Continued.
Tnf reporter robust z-score,fewer than 50 cells in well,Call,gene
0.4,enough cells in well,inactive,"Sod1 (superoxide dismutase 1, soluble)"
-1.08,enough cells in well,inactive,Zfp236 (zinc finger protein 236)
-1.39,enough cells in well,active,Cisd2 (CDGSH iron sulfur domain 2)
-0.99,enough cells in well,inactive,Ofcc1 (orofacial cleft 1 candidate 1)
,fewer than 50 cells per well; well left out of calls,inactive,"Slitrk5 (SLIT and NTRK-like family, member 5)"
-1.49,enough cells in well,active,Cytip (cytohesin 1 interacting protein)
1.96,enough cells in well,inactive,Cmya5 (cardiomyopathy associated 5)
-1.17,enough cells in well,inactive,Erich3 (glutamate rich 3)
1.9,enough cells in well,inactive,Trip10 (thyroid hormone receptor interactor 10)
0.81,enough cells in well,inactive,Wdr36 (WD repeat domain 36)
3.28,enough cells in well,active,Krtap15-1 (keratin associated protein 15-1)
-0.24,enough cells in well,inactive,"Mycn (Mycn proto-oncogene, bHLH transcription factor)"
0.01,enough cells in well,inactive,Ago4 (argonaute RISC catalytic subunit 4)
0.25,enough cells in well,inactive,Gzme (granzyme E)
-0.46,enough cells in well,inactive,Dclk3 (doublecortin-like kinase 3)
,fewer than 50 cells per well; well left out of calls,inactive,Ccdc93 (coiled-coil domain containing 93)
,fewer than 50 cells per well; well left out of calls,inactive,Or51f23 (olfactory receptor family 51 subfamily F member 23)
,fewer than 50 cells per well; well left out of calls,inactive,Hsd3b6
-1.41,enough cells in well,active,Hyal3 (hyaluronoglucosaminidase 3)
0.96,enough cells in well,inactive,Cdc42se2 (CDC42 small effector 2)
0.64,enough cells in well,inactive,Cdc42se2 (CDC42 small effector 2)
-0.25,enough cells in well,inactive,Zfp39 (zinc finger protein 39)
-0.07,enough cells in well,inactive,"Pin1 (peptidyl-prolyl cis/trans isomerase, NIMA-interacting 1)"
